Reference: PubChem BioAssay AID588590 (National Center for Advancing Translational Sciences (NCATS), 2011)
In all, about 390,000 compounds went through this assay and about 4,000 (1%) were called active. Inconclusive results, whose numbers are uncertain, are shown with a selection of clear calls. The call rests on the fitted dose curve; in most records, active means well fitted inhibition curve with a large enough effect; inconclusive means small, poorly fitted or top-dose-only effect, or another doubt; inactive means no such curve, though single readings can be large or run the other way. Where the call is inconclusive, the potency comes from a doubtful curve fit.

Amino acid sequences for entries named in this document (tags omitted). A change or cut given only in a name is not applied to a line headed by its entry.
UniProt Q9UNA4: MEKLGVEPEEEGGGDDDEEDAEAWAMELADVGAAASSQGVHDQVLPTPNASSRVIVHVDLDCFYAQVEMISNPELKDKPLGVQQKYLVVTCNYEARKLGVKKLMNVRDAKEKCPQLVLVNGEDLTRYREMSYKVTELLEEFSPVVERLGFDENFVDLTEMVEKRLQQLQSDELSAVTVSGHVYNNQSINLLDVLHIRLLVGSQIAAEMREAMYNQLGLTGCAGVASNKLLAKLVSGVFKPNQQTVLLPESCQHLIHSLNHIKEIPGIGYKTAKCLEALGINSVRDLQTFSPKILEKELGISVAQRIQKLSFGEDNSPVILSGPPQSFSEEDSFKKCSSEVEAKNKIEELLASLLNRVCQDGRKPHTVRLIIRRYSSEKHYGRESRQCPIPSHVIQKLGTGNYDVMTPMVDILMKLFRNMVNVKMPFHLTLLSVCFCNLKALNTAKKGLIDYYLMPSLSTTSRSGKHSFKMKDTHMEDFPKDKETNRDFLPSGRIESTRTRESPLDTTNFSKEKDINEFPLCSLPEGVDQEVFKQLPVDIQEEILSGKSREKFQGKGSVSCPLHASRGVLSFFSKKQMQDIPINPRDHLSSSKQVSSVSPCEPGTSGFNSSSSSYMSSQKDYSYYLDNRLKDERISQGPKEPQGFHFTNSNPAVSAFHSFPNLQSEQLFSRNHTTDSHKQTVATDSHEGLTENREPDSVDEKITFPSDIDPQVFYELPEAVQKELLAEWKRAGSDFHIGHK

biological target: DNA polymerase iota (Homo sapiens) (UniProt Q9UNA4); experiment: qHTS for Inhibitors of Polymerase Iota; settings: Pol iota fluorescent replication assay, 10 min; series mostly up to 115 µM; activity, negative = inhibition: at the top concentration
Procedure, shortened: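 Fluorescent replication assay read twice, at 0 min and 10 min after adding 50 nM (final) substrate. Enzyme (10 nM) and compounds were first incubated 15 min at room temperature; enzyme-free buffer wells were negative controls.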
Potency means the concentration at half of the fitted maximal effect.

Question: How did the “activity, negative = inhibition” value turn out when `Cc1nc(N)sc1C(=O)N/N=C/c1ccc([N+](=O)[O-])cc1` was run?
Answer: inactive: 29.4%

Question: `Cc1cccc(NC(=O)CSc2nc3c(oc4ccccc43)c(=O)n2-c2ccccc2)c1C` was tested. Which “activity, negative = inhibition” value did it give?
Answer: inactive: 21%

Question: For `O=Nc1c2cc(-c3ccccc3)[nH]nc-2c2ccccc12`, which “activity, negative = inhibition” value is on record?
Answer: inactive: -5.7%

Question: `COc1ccc(C(=O)COC(=O)C(O)c2ccccc2)c(OC)c1` (centres undefined) was tested. Which Potency did it give?
Answer: inconclusive: 79.4 µM [inhibitor, single point]

Question: `CCc1cc(=O)oc2cc(C)c3c(-c4ccc(F)cc4)coc3c12` was tested. Which “activity, negative = inhibition” value did it give?
Answer: inactive: -2.13%

Question: `CCSc1ccc([C@@H]2[C@@H]3C(=O)N(CC)C(=O)[C@@H]3[C@]3(C(=O)OC)CCCCN23)cc1OC` was tested. Which Potency did it give?
Answer: inconclusive: 35.5 µM [inhibitor, single point]

Question: Which Potency does the source give for `COc1ccccc1/C=C/c1nc(S(=O)(=O)c2ccccc2)c(N2CCC(C(N)=O)CC2)o1` here?
Answer: inconclusive: 28.2 µM [inhibitor, partial curve, poor fit]

Question: `O=S(=O)(NCC1CCN(S(=O)(=O)c2ccccc2)CC1)c1ccccc1` was tested. Which “activity, negative = inhibition” value did it give?
Answer: inactive: 33.3%

Question: For `C/C(=N\NC(=O)c1ccc(N2CCCC2=O)cc1)c1ccc(O)cc1O`, which Potency is on record?
Answer: active: 44.7 µM

Question: `COc1cc(OC)c(NC(=O)Nc2nnc(N(C)C3CCCCC3)s2)cc1Cl` was tested. Which “activity, negative = inhibition” value did it give?
Answer: inactive: 30.2%

Question: For `Cc1oc2c(C)c(O)ccc2c(=O)c1-c1cnn(-c2ccccc2)c1`, which Potency is on record?
Answer: inconclusive: 112 µM [inhibitor, partial curve, poor fit]

Question: Which Potency does the source give for `CC(C)=C1C(=O)NN(c2ccc(F)c(Cl)c2)C1=O` here?
Answer: inconclusive: 28.2 µM [inhibitor, single point]

Question: How did the Potency turn out when `CC1=C(C(=O)OCc2ccccc2)C(c2ccc(N(C)C)cc2)NC(=O)N1` (centres undefined) was run?
Answer: inconclusive: 89.1 µM [inhibitor, single point]

Question: `O=S(=O)(c1ccc(F)cc1)N1CCN(c2ccccc2)CC1` was tested. Which Potency did it give?
Answer: inconclusive: 89.1 µM [inhibitor, single point]

Question: For `O=C(NC1CCCC1)c1ccc2nc(-c3ccco3)c(-c3ccco3)nc2c1`, which Potency is on record?
Answer: inconclusive: 0.794 µM [inhibitor, full curve, poor fit]

Question: How did the Potency turn out when `CCOc1ccc(C(=O)NC2CCN(C(=O)NCc3ccccc3)CC2)cc1` was run?
Answer: inconclusive: 89.1 µM [inhibitor, single point]

Question: For `O=C(C1CCC(CNc2c(N3CCCC3)c(=O)c2=O)CC1)N1CCc2ccccc21` (centres undefined), which Potency is on record?
Answer: inconclusive: 2.82 µM [inhibitor, full curve, poor fit]

Question: `Cc1ccc(Sc2ccc(N3CCCC(C(=O)Nc4ccc(Cl)cc4)C3)nn2)cc1` (centres undefined) was tested. Which “activity, negative = inhibition” value did it give?
Answer: inactive: 15.2%

Question: For `COC(=O)c1ccccc1NC(=O)c1ccc(COc2ccccc2)o1`, which Potency is on record?
Answer: inconclusive: 11.2 µM [inhibitor, partial curve, poor fit]

Question: `Cc1ccc(-n2nc3cc(C)c(N)cc3n2)cc1` was tested. Which “activity, negative = inhibition” value did it give?
Answer: inactive: 0.749%

Question: For `O=C(NC(=S)Nc1ccccc1N1CCCC1)c1ccc([N+](=O)[O-])cc1`, which “activity, negative = inhibition” value is on record?
Answer: inactive: -14.7%

Question: How did the “activity, negative = inhibition” value turn out when `CC1=C(C(=O)Nc2cccc(C)c2C)C2(CCCCC2)OC1=O` was run?
Answer: inactive: 16.5%

Question: `CN(C)S(=O)(=O)N(CC(=O)Nc1ccc(F)c(F)c1)c1ccccc1` was tested. Which “activity, negative = inhibition” value did it give?
Answer: inactive: -26.6% [at 58.9 µM]

Question: With `CC1=C(C(=O)Nc2c(C)cc(C)cc2C)C2(CCN(C(C)C)CC2)OC1=O` as the molecule, how does the “activity, negative = inhibition” value read?
Answer: inactive: 1.02%

Question: `Cc1cc(C)cc(NC(=O)Cn2nnc(C(=O)NCCc3ccccc3)c2N)c1` was tested. Which Potency did it give?
Answer: inconclusive: 56.2 µM [inhibitor, partial curve, poor fit]

Question: With `COc1ccc(C[C@@H]2OC3(C=CC(=O)C=C3)O[C@H]2Cc2ccc(OC)cc2)cc1` as the molecule, how does the Potency read?
Answer: inconclusive: 28.2 µM [inhibitor, partial curve, poor fit]

Question: How did the Potency turn out when `CCCC(C(=O)c1ccccc1)n1cncn1` (centres undefined) was run?
Answer: inconclusive: 39.8 µM [inhibitor, single point]

Question: For `COc1cccc(CC(=O)OC(C)C(=O)Nc2ccc(N3CCOCC3)cc2)c1` (centres undefined), which Potency is on record?
Answer: inconclusive: 89.1 µM [inhibitor, single point]

Question: Which Potency does the source give for `CC(=O)N1CC[n+]2c(-c3ccc([N+](=O)[O-])cc3)csc21` here?
Answer: inconclusive: 17.8 µM [inhibitor, partial curve, poor fit]

Question: Which Potency does the source give for `Cc1nn(-c2ccccc2)c(C)c1S(=O)(=O)O` here?
Answer: inconclusive: 70.8 µM [inhibitor, partial curve, poor fit]

Question: How did the Potency turn out when `Cc1ccc2c(CC(=O)N3CCN(c4cccc(Cl)c4)CC3)coc2c1` was run?
Answer: inconclusive: 100 µM [inhibitor, partial curve, poor fit]

Question: For `OCC(CO)(CO)N=Cc1c(O)ccc2ccccc12`, which Potency is on record?
Answer: inconclusive: 31.6 µM [inhibitor, single point]

Question: Which Potency does the source give for `Cc1ccc(CCNC(=O)c2cc3c(s2)-c2ccccc2OC3)cc1` here?
Answer: active: 79.4 µM

Question: With `CCOCCn1c(CN(Cc2ccccc2)Cc2ccccc2)nc2c1c(=O)[nH]c(=O)n2C` as the molecule, how does the Potency read?
Answer: inconclusive: 126 µM [inhibitor, partial curve, poor fit]

Question: Which Potency does the source give for `NC(=O)C1CCN(CC(=O)Nc2ccc3c(c2)OCCO3)CC1` here?
Answer: inconclusive: 100 µM [inhibitor, partial curve, poor fit]

Question: `CCOn1c(=O)c(-c2cc3ccccc3o2)[n+]([O-])c2ccccc21` was tested. Which Potency did it give?
Answer: inconclusive: 25.1 µM [inhibitor, single point]

Question: `Cc1cc(C)c2nc3nc(C)cc(C)c3c(N)c2c1` was tested. Which Potency did it give?
Answer: inconclusive: 89.1 µM [inhibitor, partial curve]

Question: For `O=C1NC(=S)N/C1=C/C=C/c1ccccc1`, which “activity, negative = inhibition” value is on record?
Answer: inactive: -13%

Question: Which Potency does the source give for `CC1CCN(S(=O)(=O)c2ccc3c(c2)N(CC(=O)NCc2ccccc2Cl)C(=O)CS3)CC1` here?
Answer: inconclusive: 79.4 µM [inhibitor, single point]

Question: With `COc1ccc(CC(=O)NNC(=O)COc2ccc3ccccc3c2)cc1` as the molecule, how does the Potency read?
Answer: inconclusive: 112 µM [inhibitor, partial curve, poor fit]

Question: For `COc1ccc([N+](=O)[O-])cc1NC(=O)N(C)Cc1ccco1`, which Potency is on record?
Answer: inconclusive: 15.8 µM [inhibitor, partial curve]

Question: With `NCCNCCNCCN` as the molecule, how does the “activity, negative = inhibition” value read?
Answer: inactive: -17.9%

Question: `O=C(c1ccccc1)c1ccc(N2CCOCC2)c(F)c1` was tested. Which Potency did it give?
Answer: inconclusive: 79.4 µM [inhibitor, partial curve]

Question: Which Potency does the source give for `COc1ccc(-n2nc(C(=O)Nc3ccc(OC)c(OC)c3)c3c4ccccc4n(C)c3c2=O)cc1` here?
Answer: inconclusive: 3.16 µM [inhibitor, partial curve, poor fit]
